For 22 molecules, T/C and survivor count results are on record in PubChem BioAssay AID328 (DTP/NCI, 2004).

The structures appear in SMILES notation. The list does not hold the whole screen: it is rich in T/C values a quarter to a half above the control, in often repeated tests (any T/C) and in doses without a T/C. Other doses and runs of a compound stand elsewhere. T/C is the treated group as % of the vehicle group. Some entries give survivors of the animals treated and no T/C: the source files T/C as zero there, which appears to mark a toxic dose or a test without result, not a measured value. Some survivor counts are full or nearly so, which does not show that the dose was tolerated: survival well below the control is almost never listed, so the zero probably covers shortened survival too. Counts of survivors are from the toxicity check (mostly the fifth day) where no day follows; animals may have died later. Schedule codes are those of the source, taken here to give the interval after Q, in days (D) or hours (H), and the number of doses after X. Some entries hold several experiments; the results are listed from low to high. Where survival is the endpoint, the PubChem record calls one and a half times the control and up active, and a quarter to a half above the control has no call in these data; cut-offs in other NCI protocols can differ. Some T/C values carry the count of animals alive at the toxicity check (mostly the fifth day); without a count, all were alive then.

The subject of the test is BDF1 mice, P388 leukemia ip, median survival T/C. Nature of the test: NCI In Vivo Anticancer Drug Screen. Data for tumor model P388 Leukemia (intraperitoneal) in B6D2F1 (BDF1) mice. The settings on record: T/C endpoint: median survival time, higher T/C = longer survival. The procedure, abridged: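 Each value expresses how treatment altered survival: treated-mouse outcome over vehicle-mouse outcome, both groups bearing the transplanted tumour.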

[1] abbreviates: dose: 0.45 mg/kg/injection, schedule: Q01DX009 (ip), vehicle: saline.
The mark [2] stands for this setting: dose: 12.5 mg/kg/injection, schedule: Q01DX009 (ip), vehicle: saline.
Setting [3] is: dose: 400.0 mg/kg/injection, schedule: Q04DX003 (ip), vehicle: saline with Tween-80.
The mark [4] stands for this setting: dose: 50.0 mg/kg/injection, schedule: Q01DX009 (ip), vehicle: saline with Tween-80.
Setting [5] is: dose: 200.0 mg/kg/injection, schedule: Q01DX009 (ip), vehicle: saline with Tween-80.
The mark [6] stands for this setting: dose: 200.0 mg/kg/injection, schedule: Q04DX003 (ip), vehicle: saline with Tween-80.
Where [7] appears, read: dose: 50.0 mg/kg/injection, schedule: Q01DX009 (ip), vehicle: saline.
Where [8] appears, read: dose: 400.0 mg/kg/injection, schedule: Q04DX003 (ip), vehicle: saline.
The mark [9] stands for this setting: dose: 200.0 mg/kg/injection, schedule: Q01DX009 (ip), vehicle: Klucel (hydroxypropylcellulose) (HPC).

In the case of `COc1ccc(Nc2ccnc3cc(Cl)ccc23)cc1CN(CCCl)CCCl`, the T/C is 147 % of control (dose: 0.3 mg/kg/injection, schedule: Q01DX009 (ip), vehicle: saline); 134 % of control under setting [1]; 131 % of control (dose: 0.5 mg/kg/injection, schedule: Q04DX003 (ip), vehicle: saline); 129 % of control (dose: 0.63 mg/kg/injection, schedule: Q01DX009 (ip), vehicle: Klucel (hydroxypropylcellulose) (HPC)); 127 % of control (dose: 0.75 mg/kg/injection, schedule: Q04DX003 (ip), vehicle: saline); 127 % of control (dose: 0.78 mg/kg/injection, schedule: Q04DX003 (ip), vehicle: saline). Also, the T/C (dose: 1.0 mg/kg/injection, schedule: Q01DX009 (ip), vehicle: saline) is 145 % of control; the T/C (dose: 1.0 mg/kg/injection, schedule: Q04DX003 (ip), vehicle: saline) is 127 % of control; the T/C (dose: 1.25 mg/kg/injection, schedule: Q01DX009 (ip), vehicle: Klucel (hydroxypropylcellulose) (HPC)) is 146 % of control; the T/C (dose: 1.56 mg/kg/injection, schedule: Q04DX003 (ip), vehicle: saline) is 145 % of control; the T/C (dose: 2.0 mg/kg/injection, schedule: Q01DX009 (ip), vehicle: saline) was 140 % of control; the T/C (dose: 2.0 mg/kg/injection, schedule: Q04DX003 (ip), vehicle: saline) was 145 % of control. Further, under “dose: 4.0 mg/kg/injection, schedule: Q04DX003 (ip), vehicle: saline”, the T/C is 145 % of control. Also, the survivor count is 6 of 6 under setting [1]; 6 of 6 (dose: 2.5 mg/kg/injection, schedule: Q01DX009 (ip), vehicle: Klucel (hydroxypropylcellulose) (HPC)); 6 of 6 (dose: 5.0 mg/kg/injection, schedule: Q01DX009 (ip), vehicle: Klucel (hydroxypropylcellulose) (HPC)); 5 of 6 (dose: 6.25 mg/kg/injection, schedule: Q01DX009 (ip), vehicle: saline); 2 of 6 (dose: 10.0 mg/kg/injection, schedule: Q01DX009 (ip), vehicle: Klucel (hydroxypropylcellulose) (HPC)); 5 of 6 under setting [2]. In addition, the survivor count (dose: 25.0 mg/kg/injection, schedule: Q01DX009 (ip), vehicle: saline) is listed as 0 of 6; the survivor count (dose: 50.0 mg/kg/injection, schedule: Q04DX003 (ip), vehicle: saline sonified) is 5 of 6; the survivor count (dose: 100.0 mg/kg/injection, schedule: Q04DX003 (ip), vehicle: saline sonified) is 4 of 6.
Regarding `CC(=O)Nc1ccc(Cl)c(Cl)c1`, the survivor count under setting [3] is reported as 1 of 6.
Take `O=c1nc(Oc2ccccc2)nc2c3ccccc3ccn12`: the T/C under setting [4] was 128 % of control.
Regarding `COc1ccc2c(c1)CC1NCCc3cc4c(c-2c31)OCO4` (centres undefined), the survivor count under setting [5] is given as 0 of 6.
On to `O=C(Nc1cccc(C2=NCCCN2)c1)Nc1ccc(NC(=O)Nc2cccc(C3=NCCCN3)c2)c(Cl)c1`, for which the T/C (dose: 7.0 mg/kg/injection, schedule: Q04DX003 (ip), vehicle: saline with Tween-80) is 139 % of control. Also, the survivor count (dose: 40.0 mg/kg/injection, schedule: Q01DX009 (ip), vehicle: saline with Tween-80) is 3 of 6.
`S=C(NC12CC3CC(CC(C3)C1)C2)[NH][Sn]([c]1ccccc1)([c]1ccccc1)[c]1ccccc1`: the survivor count under setting [4] was 0 of 6; the survivor count (dose: 100.0 mg/kg/injection, schedule: Q01DX009 (ip), vehicle: saline with Tween-80) is 0 of 6; the survivor count under setting [5] is 0 of 6.
On to `CCC(c1ccc2cc(OC)ccc2c1)C(C)(C)C(=O)F` (centres undefined), for which the T/C by setting is: (dose: 25.0 mg/kg/injection, schedule: Q01DX009 (ip), vehicle: Klucel (hydroxypropylcellulose) (HPC)) 144 % of control; (dose: 33.0 mg/kg/injection, schedule: Q01DX009 (ip), vehicle: Klucel (hydroxypropylcellulose) (HPC)) 126 % of control [5 of 6 alive]; (dose: 50.0 mg/kg/injection, schedule: Q01DX009 (ip), vehicle: Klucel (hydroxypropylcellulose) (HPC)) 126 % of control [4 of 6 alive].
`O=C1/C(=C/c2ccco2)CC2CCCCC12` (centres undefined): where the note is “dose: 300.0 mg/kg/injection, schedule: Q01DX001 (ip), vehicle: other”, the survivor count was 5 of 6.
As to `C=C1C(=O)OC2/C=C(\C)CC(O)/C=C(/C)CC(OC(=O)C(O)(CO)C(C)S)C12` (centres undefined), the survivor count (dose: 400.0 mg/kg/injection, schedule: Q04DX002 (ip), vehicle: Klucel (hydroxypropylcellulose) (HPC)) is 0 of 6.
For the molecule `Clc1ccccc1-c1ncc2cnccn12`, the survivor count reads like this: (dose: 3.12 mg/kg/injection, schedule: Q01DX009 (ip), vehicle: saline with Tween-80) 4 of 6 and 6 of 6; under setting [6], 5 of 6.
As for `CCN(CC)CCNc1ncnc2c1cnn2-c1ccc(Cl)cc1`, under setting [3], the survivor count was 1 of 6.
In the case of `CN(C)c1ccc(Nc2c3ccccc3nc3ccccc23)cc1`, for the setting “dose: 120.0 mg/kg/injection, schedule: Q01DX010 (ip), vehicle: saline”, the survivor count is given as 6 of 6.
On to `O=S(=O)(C=C(N1CCCCC1)N1CCCCC1)Cc1ccccc1`, for which the survivor count is 3 of 6 under setting [7]; 0 of 6 (dose: 80.0 mg/kg/injection, schedule: Q01DX009 (ip), vehicle: saline); 6 of 6 (dose: 105.0 mg/kg/injection, schedule: Q04DX003 (ip), vehicle: saline); 0 of 6 (dose: 120.0 mg/kg/injection, schedule: Q01DX009 (ip), vehicle: saline).
As for `COC1C(OC(=O)/C=C/C=C/C=C/C=C/C(=O)O)CCC2(CO2)C1C1(C)OC1CC=C(C)C` (centres undefined), the T/C is, setting by setting: (dose: 100.0 mg/kg/injection, schedule: Q01DX009 (ip), vehicle: saline) 141 % of control; (dose: 200.0 mg/kg/injection, schedule: Q01DX009 (ip), vehicle: saline) 125 % of control; (dose: 266.0 mg/kg/injection, schedule: Q04DX003 (ip), vehicle: saline) 125 % of control; under setting [8], 130 and 133 % of control [5 of 6 alive]. The survivor count under setting [6] is 6 of 6; the survivor count (dose: 400.0 mg/kg/injection, schedule: Q01DX009 (ip), vehicle: saline) is 0 of 6; the survivor count (dose: 600.0 mg/kg/injection, schedule: Q04DX003 (ip), vehicle: saline) is 1 of 6.
`Nc1ncc(CNc2ccc(C(=O)NC(CCC(=O)O)C(=O)O)cc2)c(N)n1` (centres undefined): the T/C under setting [9] was 134 % of control. The survivor count (dose: 400.0 mg/kg/injection, schedule: Q01DX009 (ip), vehicle: Klucel (hydroxypropylcellulose) (HPC)) was 6 of 6.
`COC(=O)c1ccc(SCCCN2CCOCC2)cc1`: the T/C under setting [8] was 127 % of control.
As to `O=[N+]([O-])c1cc([N+](=O)[O-])c(NN(c2ccc(Cl)cc2)c2ccc(Cl)cc2)c([N+](=O)[O-])c1`, the survivor count was 4 of 6 under setting [9] and 2 of 6 (dose: 400.0 mg/kg/injection, schedule: Q04DX003 (ip), vehicle: Klucel (hydroxypropylcellulose) (HPC)).
With `NC(=O)C(Br)CBr` (centres undefined), the survivor count is 6 of 6 under setting [2]; 0 of 6 under setting [5]; 0 of 6 (dose: 400.0 mg/kg/injection, schedule: Q01DX009 (ip), vehicle: saline with Tween-80).
For the molecule `C(=N\OCCc1ccccc1)/c1cccnc1`, where the note is “dose: 400.0 mg/kg/injection, schedule: Q01DX009 (ip), vehicle: saline sonified”, the T/C is 140 % of control.
Consider `CC(C)=CC(=O)OCC[N+](C)(C)C`, for which the survivor count under setting [7] is on record as 0 of 6.
As for `Cc1c([C@H](C)[C@@H]2NC[C@@H](C)C[C@H]2O)ccc2c1C[C@H]1[C@H]2CC=C2C[C@@H](O)CC[C@@]21C`, the T/C (dose: 6.0 mg/kg/injection, schedule: Q01DX010 (ip), vehicle: carboxymethylcellulose (CMC)) is 130 % of control [5 of 6 alive]. Further, the survivor count (dose: 12.0 mg/kg/injection, schedule: Q01DX010 (ip), vehicle: carboxymethylcellulose (CMC)) is 0 of 6.
In the case of `CC(=O)CC(=O)NCCCN1CCCCC1`, the survivor count is on record as 1 of 6 under setting [4] and 0 of 6 (dose: 100.0 mg/kg/injection, schedule: Q04DX003 (ip), vehicle: saline with Tween-80).
